Earlier results, collected in patent US10864317B2, “Time controlled periodic infusion” (Ferrosan Medical Devices A/S, priority 2014, dated 2020).
Some of these results come from one statement about several compounds together.

Experiments:
[1] = test system: peripheral nerve
[2] = test system: epidural nerve

Question: Which results are given for CCCCN1CCCCC1C(=O)Nc1c(C)cccc1C (stereo not shown) [bupivacaine]?
Answer: effective time for peripheral nerve blocking [1]: ≥ 12 h; effective time for epidural nerve blocking [2]: 1 to 2 h

Question: For CCCN1CCCC[C@H]1C(=O)Nc1c(C)cccc1C [ropivacaine], which “effective time for peripheral nerve blocking” value [1] is on record?
Answer: Its value is at least 12 h.

Question: And the “effective time for epidural nerve blocking” value [2]?
Answer: Its value is 1 to 2 h.
